Data reported in patent US10653680B2, “Treatment of impulsivity-related disorders” (OXFORD UNIVERSITY INNOVATION LIMITED, priority 2016, dated 2020).

Tested on: healthy participants
Experiment: Human study: subjective ratings (PANAS mood, side effect profile, LSEQ sleep, guess of treatment arm)
Format: in vivo
Source text: Twenty healthy participants (7 females, 13 males; mean age 25.1 years, range 20-38 years; mean BMI 22.7 kg/m^2, range 18.7-30.0 kg/m^2) were included in the study after giving full informed written consent.
Exclusion criteria included a history of any DSM-5 Axis I psychiatric disorder (determined using the […] for Diagnostic and Statistical Manual for Mental Health Disorders), significant current medical condition, current regular medication (apart from the contraceptive pill), pregnancy or lactation, heavy smoking (defined as more than 5 cigarettes per day) and having taken part in another study involving an investigational drug within the previous 3 months. Participants were asked to maintain stable exercise and diet as well as refrain from alcohol during study participation.
Ebselen capsules and identical matching placebo (containing microcrystalline cellulose) were purchased from Shasun Pharmaceuticals Ltd. Participants were tested twice (seven days apart) receiving on one occasion ebselen and, on the other, placebo in a randomised, double-blind, cross-over design. Ebselen was administered in 6×200 mg capsules in three doses given over two days. The order of receiving either the ebselen or the placebo was randomised.
On the day before cognitive testing, participants took the first dose at 1 pm and the second dose at 10 pm. The final dose was taken around 3 hrs prior to cognitive testing. […]
On the screening visit, participants were assessed for baseline depression and anxiety symptoms with the Beck Depression Inventory (Beck et al.; Arch. Gen. Psychiatry; 1961, 4: 561-571) and the state measure of the State-Trait Anxiety Inventory (STAI) (Spielberger et al.; Manual for the State-Trait Anxiety Inventory, Consulting Psychologists Press, Palo Alto Calif., 1983), and for personality with the Eysenck Personality Questionnaire (Eysenck and Eysenck, Manual of the Eysenck Personality Questionnaire, London: Hodder & Stoughton, 1975). […]

Compound: O=c1c2ccccc2[se]n1-c1ccccc1 [Ebselen, 2-phenyl-1,2-benzisoselenazol-3(2H)-one]
- PANAS - Positive, Mean ± SEM (20 healthy participants, ebselen 6x200 mg capsules in three doses over two days, vs placebo p = 0.204): 29.8 ± 1.2
- PANAS - Negative, Mean ± SEM (20 healthy participants, ebselen 6x200 mg capsules in three doses over two days, vs placebo p = 0.818): 11.9 ± 0.7
- effects of treatment on mood (PANAS) (ebselen vs placebo, repeated measures ANOVA): no main or interactive effects
